From publication doi:10.1101/346619

B1: TR4 (NR2C2), endogenous (protein, UniProt P49116 1-596)
chain: MTSPSPRIQIISTDSAVASPQRIQIVTDQQTGQKIQIVTAVDASGSPKQQFILTSPDGAGTGKVILASPETSSAKQLIFTTSDNLVPGRIQIVTDSASVERLLGKTDVQRPQVVEYCVVCGDKASGRHYGAVSCEGCKGFFKRSVRKNLTYSCRSNQDCIINKHHRNRCQFCRLKKCLEMGMKMESVQSERKPFDVQREKPSNCAASTEKIYIRKDLRSPLIATPTFVADKDGARQTGLLDPGMLVNIQQPLIREDGTVLLATDSKAETSQGALGTLANVVTSLANLSESLNNGDTSEIQPEDQSASEITRAFDTLAKALNTTDSSSSPSLADGIDTSGGGSIHVISRDQSTPIIEVEGPLLSDTHVTFKLTMPSPMPEYLNVHYICESASRLLFLSMHWARSIPAFQALGQDCNTSLVRACWNELFTLGLAQCAQVMSLSTILAAIVNHLQNSIQEDKLSGDRIKQVMEHIWKLQEFCNSMAKLDIDGYEYAYLKAIVLFSPDHPGLTSTSQIEKFQEKAQMELQDYVQKTYSEDTYRLARILVRLPALRLMSSNITEELFFTGLIGNVSIDSIIPYILKMETAEYNGQITGASL
B2: Sin3A, two-hybrid fusion (protein, UniProt Q60520 1-1274)
chain: MKRRLDDQESPVYAAQQRRIPGSTEAFSHQHRVLAPAPPVYEAVSETMQSATGIQYSVAPNYQVSAVPQSSGSHGPAIAAVHSSHHHPTAVQPHGGQVVQSHAHPAPPVAPVQGQQQFQRLKVEDALSYLDQVKLQFGSQPQVYNDFLDIMKEFKSQSIDTPGVISRVSQLFKGHPDLIMGFNTFLPPGYKIEVQTNDMVNVTTPGQVHQIPTHGIQPQPQPPPQHPSQPSSQSAPTPAQPAPQPTAAKVSKPSQLQAHTPASQQTPPLPPYASPRSPPVQPHTPVTISLGTAPSLQNNQPVEFNHAINYVNKIKNRFQGQPDIYKAFLEILHTYQKEQRNAKEAGGNYTPALTEQEVYAQVARLFKNQEDLLSEFGQFLPDANSSVLLSKTTAEKVDSVRNDHGGTVKKPQLNNKPQRPSQNGCQIRRHSGTGATPPVKKKPKLMSLKESSMADASKHGVGTESLFFDKVRKALRSAEAYENFLRCLVIFNQEVISRAELVQLVSPFLGKFPELFNWFKNFLGYKESVHLESFPKERATEGIAMEIDYASCKRLGSSYRALPKSYQQPKCTGRTPLCKEVLNDTWVSFPSWSEDSTFVSSKKTQYEEHIYRCEDERFELDVVLETNLATIRVLEAIQKKLSRLSAEEQAKFRLDNTLGGTSEVIHRKALQRIYADKAADIIDGLRKNPSIAVPIVLKRLKMKEEEWREAQRGFNKVWREQNEKYYLKSLDHQGINFKQNDTKVLRSKSLLNEIESIYDERQEQATEENAGVPVGPHLSLAYEDKQILEDAAALIIHHVKRQTGIQKEDKYKIKQIMHHFIPDLLFAQRGDLSDVEEEEEEEMDVDEATGAPKKHNGVGGSPPKSKLLFSNTAAQKLRGMDEVYNLFYVNNNWYIFMRLHQILCLRLLRICSQAERQIEEENREREWEREVLGIKRDKSDSPAIQLRLKEPMDVDVEDYYPAFLDMVRSLLDGNIDSSQYEDSLREMFTIHAYIAFTMDKLIQSIVRQLQHIVSDEVCVQVTDLYLAENNNGATGGQLNSQTSRSLLESAYQRKAEQLMSDENCFKLMFIQSQGQVQLTVELLDTEEENSDDPVEAERWSDYVERYMSSDTTSPELREHLAQKPVFLPRNLRRIRKCQRGREQQEKEGKEGNSKKTMENVESLDKLECRFKLNSYKMVYVIKSEDYMYRRTALLRAHQSHERVSKRLHQRFQAWVDKWTKEHVPREMAAETSKWLMGEGLEGLVPCTTTCDTETLHFVSINKYRVKYGTVFKAP

What was measured:
[1] = target: HCF1, endogenous (human (endogenous in HUDEP-2)); assay: co-IP
[2] = target: NCoR1 fragment with repressive domains 2 plus 3 (NCoR1-RD2/3) (mouse); assay: two-hybrid

Binder | binding [1] | binding [2]
B1 | binds | 
B2 |  | no binding

These are yes or no findings as the source states them, for the method shown. For some assays here: Binding seen in cells or lysates may run through a third protein. For some assays here: A result given as binding can be weak or reduced; the word gives no strength. For some assays here: Tags and fused reporters may be left off the sequences shown.
